Measured data: PubChem BioAssay AID1053208 (Peter MacCallum Cancer Centre, 2014)
The deposit covers about 17,000 reagents; shown is a part drawn at random. Of all reagents, 788 (4.7%) were called active. 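Calls rest on z-score classes alone; an extra cut-off of viability at most 70% of control was not applied to them.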 Not all columns of the deposit are shown.

Screen: 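Synthetic lethal interactions between gene loss and doxorubicin in osteosarcoma cells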 (primary screen)
Cell system: mouse osteosarcoma cells, early-passage culture from an engineered mouse model of fibroblastic bone tumour
Knock-down reagent: siRNA pool against mouse genes, 40 nM
Timing: about 120 h (48 h before drug, then 72 h with drug)
Challenge: doxorubicin 100 nM for 72 h, roughly 30-40% inhibitory dose
Read-out: 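Viability read as ATP luminescence after 72 h of 100 nM doxorubicin or none, duplicate wells averaged, scaled to non-targeting siRNA, then expressed as robust z-scores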
Scale: viability z-score with doxorubicin: higher = more viable cells under doxorubicin; viability z-score without drug: higher = more viable cells with knock-down alone
Hit rule: 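a pool counts as active when its viability z-score with doxorubicin is -2 or below and its z-score without drug lies between -2 and 2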

What is on record for Cacng7?
combined z-score class: no change with or without drug; viability z-score with doxorubicin: 0; viability z-score without drug: 0.51; call: inactive

With Svep1, what does the deposit list?
combined z-score class: no change with or without drug; viability z-score with doxorubicin: -1.35; viability z-score without drug: -0.51; call: inactive

With Hnf1a, what was measured?
combined z-score class: no change with or without drug; viability z-score with doxorubicin: 0.22; viability z-score without drug: 0.51; call: inactive

What is on record for Oxtr?
combined z-score class: no change with or without drug; viability z-score with doxorubicin: 0.34; viability z-score without drug: -0.51; call: inactive

With Ifi205, what was measured?
combined z-score class: no change with or without drug; viability z-score with doxorubicin: -0.11; viability z-score without drug: -0.51; call: inactive

With Msh3, how do the results read?
combined z-score class: no change with or without drug; viability z-score with doxorubicin: -0.9; viability z-score without drug: -1.35; call: inactive

With Smurf2, what was measured?
combined z-score class: no change with or without drug; viability z-score with doxorubicin: 0; viability z-score without drug: 0.17; call: inactive

How did the screen score Mterf1a?
combined z-score class: high cell count with doxorubicin only; viability z-score with doxorubicin: 2.25; viability z-score without drug: -0.34; call: inactive

For Actl7b, what was measured?
combined z-score class: low cell count with doxorubicin only; viability z-score with doxorubicin: -2.02; viability z-score without drug: 0.17; call: active

Which result is listed for Lcn9?
combined z-score class: no change with or without drug; viability z-score with doxorubicin: 0; viability z-score without drug: 0.84; call: inactive

With Ifitm3, how do the results read?
combined z-score class: no change with or without drug; viability z-score with doxorubicin: -0.45; viability z-score without drug: -0.17; call: inactive

Which result is listed for Pitpnm2?
combined z-score class: low cell count with doxorubicin only; viability z-score with doxorubicin: -2.02; viability z-score without drug: 0.17; call: active

2 consecutive records already listed:
Ifitm3 — combined z-score class: no change with or without drug; viability z-score with doxorubicin: -0.45; viability z-score without drug: -0.17; call: inactive
Pitpnm2 — combined z-score class: low cell count with doxorubicin only; viability z-score with doxorubicin: -2.02; viability z-score without drug: 0.17; call: active
